Reference: PubChem BioAssay AID2685 (National Center for Advancing Translational Sciences (NCATS), 2010)
The other results are listed elsewhere or left out. Further columns of the screen follow, without active or inactive calls. The list favours compounds with an active or inconclusive main result. The note in brackets gives the kind of curve behind each potency; many fits are weak.

Experiment: qHTS Assay for Lipid Storage Modulators in Drosophila S3 Cells;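 for cell number change: cells counted by Cell Tracker Red CMTPX staining in the red channel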
Details: BODIPY lipid droplet fluorescence, 18-24 h; for cell number change: measured here: cell count max response, cells fed with added oleic acid
Method in brief: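 Laser-scanning cytometry quantifies lipid droplet accumulation (500–530 nm total intensity; droplet/cell object ratio) in oleic acid-fed (400 uM added) Drosophila S3 cells treated with a concentration series. 20 uM Triacsin C defined 100% inhibition.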

[1] = measured here: lipid fluorescence (Fed channel) AC50, cells fed with added oleic acid
[2] = measured here: cell number channel AC50, cells fed with added oleic acid

Row | Structure (SMILES) | cell number change [%] | AC50 [1] | AC50 [2]
1 | CC(=O)NC(CC(=O)O)C(=O)O (centres undefined) | -15.6 | 3.66 µM [rising, single point] | –
2 | COc1ccccc1/C=C/C(=O)/C=C/c1ccccc1O | 1.49 | 29.1 µM [falling, single point] | –
3 | Cc1ccccc1C(=O)Nc1c(C)[nH]c(=O)[nH]c1=O | 13.9 | – | –
4 | Cc1cccc(C)c1NC(=O)C(Cl)=C(Cl)Cl | 10.1 | – | –
5 | CC(C)CNC(=O)Nc1ccccc1F | 163 | 16.4 µM [rising, partial curve] | 14.6 µM [rising, partial curve]
6 | Cc1cc(SCC(=O)OCC(=O)NC(C)c2ccccc2)c(C)cc1Br (centres undefined) | -83.3 | – | 18.4 µM [falling, single point]
7 | CC(C)(C)C(=O)CNCC(=O)C(C)(C)C | -76.8 | 6.51 µM [falling, partial curve, poor fit] | 32.6 µM [falling, partial curve, poor fit]
8 | CC(C)OC(=O)c1cc2c(ccn2-c2ccc(F)cc2)n1CC(=O)N1CCN(C(=O)c2ccco2)CC1 | -27 | – | –
9 | Cc1ccc(C)c(S(=O)(=O)n2cnc3ccccc32)c1 | 3.52 | – | –
10 | O=C(Nc1ccc(S(=O)(=O)N2CCOCC2)cc1)c1ccc([N+](=O)[O-])s1 | -36.4 | 20.6 µM [falling, partial curve, poor fit] | 2.31 µM [falling, full curve]
11 | CCc1ccc(OC(=O)CN2C(=O)c3ccccc3C2=O)cc1 | 3.23 | – | –
12 | Cn1c(=O)[nH]c(=O)c2c1nc(Br)n2CCCSc1nc2ccccc2o1 | 94 | 2.91 µM [rising, partial curve] | 3.26 µM [rising, partial curve]
13 | Cc1cccc(N2C(=O)N3[C@H](c4ccc(F)cc4)[C@@H]4C(=O)N(C5CCCCC5)C(=O)[C@@H]4[C@]3(Cc3ccccc3)C2=O)c1 | 27.8 | 3.26 µM [rising, full curve] | –
14 | NC(=O)c1ccc(NC(=O)COC(=O)CCCc2c[nH]c3ccccc23)cc1 | -33.6 | – | 14.6 µM [falling, single point]
15 | Cc1ccccc1N(CC(=O)Nc1ccc(S(=O)(=O)N2CCOCC2)cc1)S(C)(=O)=O | -16.5 | 5.17 µM [falling, partial curve, poor fit] | –
16 | Cc1ccc(N2C(=O)c3sc4nnc(C)c(=O)n4c3C2=O)cc1 | – | – | 0.58 µM [rising, single point]
17 | O=S(=O)(NCC1CCCO1)c1ccc(Br)cc1 (centres undefined) | 1.05 | 6.51 µM [rising, single point] | –
18 | O=C(CN1C(=O)NC2(CCCC2)C1=O)Nc1cc(Cl)ccc1N1CCCCC1 | -1.47 | 29.1 µM [falling, single point] | 0.00461 µM [rising, full curve, poor fit]
19 | CCNc1nc(OC)nc(SCC(N)=O)n1 | 5.87 | 0.651 µM [falling, partial curve, poor fit] | –
20 | O=c1[nH]c(C2CCCN(S(=O)(=O)c3ccccc3F)C2)nc2c1nnn2Cc1ccccc1Cl (centres undefined) | 3.04 | – | –
21 | CCn1c2ccccc2c2cc(/C=N/NC(=O)c3ccccc3)ccc21 | -1.69 | 0.00517 µM [falling, full curve, poor fit] | –

Row | Structure (SMILES) | cell number change [%] | AC50 [1] | AC50 [2]
22 | CCC1(C)Cc2[nH]c(=O)c(C#N)cc2CO1 (centres undefined) | 4.72 | 9.2 µM [rising, partial curve] | –
23 | CC(Nn1cnnc1)c1cc(Cl)ccc1O (centres undefined) | 10.9 | 3.66 µM [falling, single point] | –
24 | CCCOc1ccc(-c2c(C(=O)N/N=C/c3ccco3)nnn2-c2nonc2N)cc1 | 11 | – | –
25 | CC1(C)COC(/C=C/c2cccc([N+](=O)[O-])c2)=N1 | -19.5 | 20.6 µM [falling, partial curve] | –
26 | Cc1nn(Cc2c(F)c(F)c(F)c(F)c2F)c(C)c1NC(=O)c1ccnn1C | 2.89 | – | –
27 | COC(CNC(=O)C1CCC(CNS(=O)(=O)c2c(C)cc(C)cc2C)CC1)OC (centres undefined) | -39 | 0.58 µM [falling, single point] | 0.92 µM [falling, full curve]
28 | CCCCNC(=O)N1CCCN(c2ccc(C#N)cn2)CC1 | – | 29.1 µM [rising, single point] | –
29 | COc1ccc(NC(=O)N2CCN(S(C)(=O)=O)CC2)cc1OC | – | 29.1 µM [rising, single point] | –
30 | COc1ccc(/C=C2\SC(=O)N(CC(=O)N(C)C3CCS(=O)(=O)C3)C2=O)cc1 (centres undefined) | 24.2 | – | –
31 | CCOC(=O)C(C(=O)OCC)=C1OC(=O)c2ccccc21 | 8.25 | 2.59 µM [rising, single point] | –
32 | Cc1cccc(NC(=O)c2ccc([N+](=O)[O-])o2)c1 | – | 18.4 µM [falling, partial curve] | –
33 | CC(=O)c1cn(CC(=O)Nc2ccccc2Cl)c2ccccc12 | 6.45 | 3.66 µM [falling, full curve] | –
34 | CCCCC(=O)Nc1ncc2c(n1)CC(C)(C)CC2=O | 17.6 | – | –
35 | C[C@@H](CN=[N+]=[N-])CN1CC[C@H](C(C)(C)C)CCC1=O | -12.9 | 29.1 µM [falling, single point] | –
36 | CC(C)COc1ccc(C(=O)Nc2ccc(NC(=O)c3ccco3)c(Cl)c2)cc1 | – | 6.51 µM [rising, single point] | 2.59 µM [rising, partial curve]
37 | C/C(O)=C(/C=Nc1ccccc1)C(=O)Nc1ccccc1 | -11.5 | – | –
38 | Cc1ccnc(NC(=O)c2ccc(COc3c(F)c(F)cc(F)c3F)o2)c1 | -12.4 | 0.731 µM [falling, single point] | –
39 | COc1ccc(Cl)cc1S(=O)(=O)N1CCN(C)CC1 | -19.1 | 0.0651 µM [rising, full curve, poor fit] | –
40 | CC(=O)c1ccc(NC(=O)[C@@]2(CC(=O)O)CC(/C=C/c3ccccc3)=NO2)cc1 | -23.9 | – | –
41 | Cn1cc(/C=N\O)nc2c(=O)n(-c3ccccc3)c(=O)nc1-2 | 0.493 | 9.2 µM [falling, partial curve, poor fit] | –
42 | COCCCNC(=O)CCn1c(=O)c2ccccc2n(CC(=O)Nc2ccc(C)cc2C)c1=O | -33.8 | 29.1 µM [rising, partial curve, poor fit] | –

Full records from above:
COc1ccc(NC(=O)N2CCN(S(C)(=O)=O)CC2)cc1OC as listed: AC50 [1]: 29.1 µM [rising, single point]
Cn1cc(/C=N\O)nc2c(=O)n(-c3ccccc3)c(=O)nc1-2 as listed: cell number change [%]: 0.493; AC50 [1]: 9.2 µM [falling, partial curve, poor fit]
CCC1(C)Cc2[nH]c(=O)c(C#N)cc2CO1 (centres undefined) as listed: cell number change [%]: 4.72; AC50 [1]: 9.2 µM [rising, partial curve]
Cc1nn(Cc2c(F)c(F)c(F)c(F)c2F)c(C)c1NC(=O)c1ccnn1C as listed: cell number change [%]: 2.89
